Measurements: the supplement of paper PMC12823440, “Inhibitors supercharge kinase turnover through native proteolytic circuits” (Nature, 2025)
Where a name gives a salt, the structure may show the parent alone. The list shows a part of the results. The calls rarely recur for the same compound in another form.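 In K562 cells expressing nanoluciferase-fused kinases, luminescence was recorded at 4 h intervals between 2 and 18 h, normalized as percent of control with DMSO at 100% and a positive control at 0%. A significant (2 sigma) signal drop marks a time point as decreased. The authors' rule for a hit is not shown and takes in more than the number of time points.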

The chains behind the UniProt entries cited, without tags or fusion partners. Where a name states a change or a piece, a line headed by the entry shows the natural chain unless it says otherwise.
UniProt Q15208: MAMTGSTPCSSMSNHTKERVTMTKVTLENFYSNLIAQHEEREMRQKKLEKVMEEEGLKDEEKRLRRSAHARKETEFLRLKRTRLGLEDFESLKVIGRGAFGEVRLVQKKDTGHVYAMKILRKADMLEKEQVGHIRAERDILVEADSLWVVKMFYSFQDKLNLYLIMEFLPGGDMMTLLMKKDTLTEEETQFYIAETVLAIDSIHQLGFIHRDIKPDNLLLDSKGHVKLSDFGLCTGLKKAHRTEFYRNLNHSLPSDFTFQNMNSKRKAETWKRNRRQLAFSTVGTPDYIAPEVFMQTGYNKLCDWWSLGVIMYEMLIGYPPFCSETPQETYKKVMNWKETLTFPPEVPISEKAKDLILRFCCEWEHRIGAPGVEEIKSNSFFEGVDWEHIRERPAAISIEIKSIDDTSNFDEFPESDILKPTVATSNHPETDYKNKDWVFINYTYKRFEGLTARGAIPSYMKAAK
UniProt P42680: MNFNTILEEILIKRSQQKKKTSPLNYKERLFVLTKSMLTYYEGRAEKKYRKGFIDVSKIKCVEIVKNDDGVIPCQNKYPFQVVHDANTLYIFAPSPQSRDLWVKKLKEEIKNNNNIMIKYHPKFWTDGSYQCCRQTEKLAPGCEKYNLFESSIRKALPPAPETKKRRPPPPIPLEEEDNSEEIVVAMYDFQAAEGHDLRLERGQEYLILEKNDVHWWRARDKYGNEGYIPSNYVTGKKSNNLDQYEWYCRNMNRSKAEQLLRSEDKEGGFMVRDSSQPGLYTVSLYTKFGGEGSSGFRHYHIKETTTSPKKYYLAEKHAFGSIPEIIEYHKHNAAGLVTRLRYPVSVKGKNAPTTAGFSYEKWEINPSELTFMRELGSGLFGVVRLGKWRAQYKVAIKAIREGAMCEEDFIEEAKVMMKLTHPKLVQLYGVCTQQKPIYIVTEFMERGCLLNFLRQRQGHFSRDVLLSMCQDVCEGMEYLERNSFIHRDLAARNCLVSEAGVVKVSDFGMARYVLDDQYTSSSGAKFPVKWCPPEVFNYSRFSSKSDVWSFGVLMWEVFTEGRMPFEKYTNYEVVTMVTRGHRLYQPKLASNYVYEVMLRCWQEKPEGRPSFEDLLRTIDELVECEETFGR
UniProt P29597: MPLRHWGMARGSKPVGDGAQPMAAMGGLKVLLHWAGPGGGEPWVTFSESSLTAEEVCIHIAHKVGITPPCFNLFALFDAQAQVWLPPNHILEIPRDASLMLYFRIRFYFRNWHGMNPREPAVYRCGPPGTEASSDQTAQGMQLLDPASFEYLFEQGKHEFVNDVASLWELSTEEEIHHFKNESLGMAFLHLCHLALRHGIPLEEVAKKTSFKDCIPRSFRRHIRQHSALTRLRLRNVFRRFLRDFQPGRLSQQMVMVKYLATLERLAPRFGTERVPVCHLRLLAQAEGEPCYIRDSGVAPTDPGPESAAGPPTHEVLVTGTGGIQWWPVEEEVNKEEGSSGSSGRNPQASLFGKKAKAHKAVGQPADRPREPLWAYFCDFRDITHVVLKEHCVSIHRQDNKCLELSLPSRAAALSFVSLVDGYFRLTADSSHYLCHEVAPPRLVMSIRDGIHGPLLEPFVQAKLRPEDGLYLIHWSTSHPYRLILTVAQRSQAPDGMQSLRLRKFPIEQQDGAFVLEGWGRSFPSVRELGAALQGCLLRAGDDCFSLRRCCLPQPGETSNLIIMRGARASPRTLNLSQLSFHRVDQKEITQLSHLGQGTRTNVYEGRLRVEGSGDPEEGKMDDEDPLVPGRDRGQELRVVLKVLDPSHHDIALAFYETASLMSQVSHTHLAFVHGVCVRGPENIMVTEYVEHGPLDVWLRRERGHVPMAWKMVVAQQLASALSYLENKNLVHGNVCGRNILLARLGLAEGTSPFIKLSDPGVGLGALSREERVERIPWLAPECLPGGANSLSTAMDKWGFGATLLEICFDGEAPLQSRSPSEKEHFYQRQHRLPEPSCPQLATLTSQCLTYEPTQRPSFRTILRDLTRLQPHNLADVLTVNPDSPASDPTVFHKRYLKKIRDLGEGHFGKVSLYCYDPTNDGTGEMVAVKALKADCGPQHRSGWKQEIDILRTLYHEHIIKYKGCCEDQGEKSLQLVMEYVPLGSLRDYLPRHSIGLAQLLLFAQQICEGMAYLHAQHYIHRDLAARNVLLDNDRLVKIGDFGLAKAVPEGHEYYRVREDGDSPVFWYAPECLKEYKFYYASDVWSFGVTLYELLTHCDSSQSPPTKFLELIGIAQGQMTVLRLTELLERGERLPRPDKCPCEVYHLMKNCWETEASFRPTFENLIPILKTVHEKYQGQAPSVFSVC
UniProt Q6PHR2: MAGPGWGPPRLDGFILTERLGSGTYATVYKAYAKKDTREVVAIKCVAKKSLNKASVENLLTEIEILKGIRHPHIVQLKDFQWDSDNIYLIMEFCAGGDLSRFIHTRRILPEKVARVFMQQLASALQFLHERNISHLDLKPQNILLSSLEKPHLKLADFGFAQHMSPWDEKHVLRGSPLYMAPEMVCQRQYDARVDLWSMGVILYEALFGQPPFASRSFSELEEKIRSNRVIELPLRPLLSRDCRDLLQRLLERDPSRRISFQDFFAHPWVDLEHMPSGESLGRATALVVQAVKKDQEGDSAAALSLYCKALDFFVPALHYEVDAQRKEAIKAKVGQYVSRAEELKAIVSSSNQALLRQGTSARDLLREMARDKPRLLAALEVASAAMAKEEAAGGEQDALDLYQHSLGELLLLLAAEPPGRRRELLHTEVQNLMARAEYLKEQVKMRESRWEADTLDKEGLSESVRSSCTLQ
UniProt P07947, whole entry, looked up: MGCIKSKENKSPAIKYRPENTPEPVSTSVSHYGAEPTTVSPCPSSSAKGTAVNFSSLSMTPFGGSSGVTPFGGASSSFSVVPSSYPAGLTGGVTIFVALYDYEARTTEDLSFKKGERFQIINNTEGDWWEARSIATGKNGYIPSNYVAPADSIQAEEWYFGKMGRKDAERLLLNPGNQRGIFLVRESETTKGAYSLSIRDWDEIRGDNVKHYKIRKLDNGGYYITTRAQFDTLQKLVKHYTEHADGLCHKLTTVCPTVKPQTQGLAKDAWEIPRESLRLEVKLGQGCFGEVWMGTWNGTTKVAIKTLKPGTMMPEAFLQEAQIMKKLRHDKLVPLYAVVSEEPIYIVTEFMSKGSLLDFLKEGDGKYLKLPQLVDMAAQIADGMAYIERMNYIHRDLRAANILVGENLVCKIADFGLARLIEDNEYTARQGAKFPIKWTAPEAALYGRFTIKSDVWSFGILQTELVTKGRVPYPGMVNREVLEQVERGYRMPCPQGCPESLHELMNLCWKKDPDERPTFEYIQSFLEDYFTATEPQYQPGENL
UniProt P43403: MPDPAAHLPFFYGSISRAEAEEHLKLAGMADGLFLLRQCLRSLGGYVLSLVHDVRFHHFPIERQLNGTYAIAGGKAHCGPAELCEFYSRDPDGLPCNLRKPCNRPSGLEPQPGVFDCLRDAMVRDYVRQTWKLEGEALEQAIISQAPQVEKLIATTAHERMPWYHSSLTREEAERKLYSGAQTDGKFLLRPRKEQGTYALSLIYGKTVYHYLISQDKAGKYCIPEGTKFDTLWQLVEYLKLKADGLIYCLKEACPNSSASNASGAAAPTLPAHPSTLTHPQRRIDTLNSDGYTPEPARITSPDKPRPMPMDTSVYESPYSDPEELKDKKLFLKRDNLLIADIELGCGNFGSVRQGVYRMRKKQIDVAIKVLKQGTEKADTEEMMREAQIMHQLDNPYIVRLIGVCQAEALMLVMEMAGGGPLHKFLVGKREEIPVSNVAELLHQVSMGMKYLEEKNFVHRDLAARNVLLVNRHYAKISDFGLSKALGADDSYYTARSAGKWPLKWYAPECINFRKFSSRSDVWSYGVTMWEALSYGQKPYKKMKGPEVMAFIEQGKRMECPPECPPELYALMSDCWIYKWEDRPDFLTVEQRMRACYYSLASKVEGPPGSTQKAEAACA
UniProt P00519, whole entry: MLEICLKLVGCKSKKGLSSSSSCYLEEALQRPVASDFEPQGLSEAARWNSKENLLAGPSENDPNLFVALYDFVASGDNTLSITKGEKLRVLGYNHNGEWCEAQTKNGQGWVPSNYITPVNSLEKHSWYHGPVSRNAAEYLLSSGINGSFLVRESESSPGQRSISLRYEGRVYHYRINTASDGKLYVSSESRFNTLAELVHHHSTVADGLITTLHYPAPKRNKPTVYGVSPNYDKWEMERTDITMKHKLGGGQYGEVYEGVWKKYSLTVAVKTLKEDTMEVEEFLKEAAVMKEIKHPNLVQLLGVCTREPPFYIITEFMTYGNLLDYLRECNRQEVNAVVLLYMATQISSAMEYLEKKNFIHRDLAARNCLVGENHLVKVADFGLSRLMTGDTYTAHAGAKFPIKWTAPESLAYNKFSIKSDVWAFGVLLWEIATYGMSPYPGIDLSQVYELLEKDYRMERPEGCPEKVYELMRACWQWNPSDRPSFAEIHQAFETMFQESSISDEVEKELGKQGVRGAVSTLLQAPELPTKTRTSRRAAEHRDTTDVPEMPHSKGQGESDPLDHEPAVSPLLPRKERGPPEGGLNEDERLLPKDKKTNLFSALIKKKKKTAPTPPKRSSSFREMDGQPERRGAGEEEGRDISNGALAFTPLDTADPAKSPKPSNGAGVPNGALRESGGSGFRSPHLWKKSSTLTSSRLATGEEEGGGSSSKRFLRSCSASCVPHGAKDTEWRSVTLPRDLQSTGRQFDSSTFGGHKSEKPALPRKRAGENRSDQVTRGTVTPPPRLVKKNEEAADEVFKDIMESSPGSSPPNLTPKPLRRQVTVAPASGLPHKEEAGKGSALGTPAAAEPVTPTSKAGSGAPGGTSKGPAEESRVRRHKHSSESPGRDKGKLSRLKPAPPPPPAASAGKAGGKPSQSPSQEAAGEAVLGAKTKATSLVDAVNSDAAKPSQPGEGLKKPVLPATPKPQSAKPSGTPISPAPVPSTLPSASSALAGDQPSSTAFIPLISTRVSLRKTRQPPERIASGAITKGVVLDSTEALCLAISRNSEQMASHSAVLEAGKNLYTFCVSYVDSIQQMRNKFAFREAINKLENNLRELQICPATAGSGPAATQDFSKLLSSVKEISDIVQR
UniProt P31749: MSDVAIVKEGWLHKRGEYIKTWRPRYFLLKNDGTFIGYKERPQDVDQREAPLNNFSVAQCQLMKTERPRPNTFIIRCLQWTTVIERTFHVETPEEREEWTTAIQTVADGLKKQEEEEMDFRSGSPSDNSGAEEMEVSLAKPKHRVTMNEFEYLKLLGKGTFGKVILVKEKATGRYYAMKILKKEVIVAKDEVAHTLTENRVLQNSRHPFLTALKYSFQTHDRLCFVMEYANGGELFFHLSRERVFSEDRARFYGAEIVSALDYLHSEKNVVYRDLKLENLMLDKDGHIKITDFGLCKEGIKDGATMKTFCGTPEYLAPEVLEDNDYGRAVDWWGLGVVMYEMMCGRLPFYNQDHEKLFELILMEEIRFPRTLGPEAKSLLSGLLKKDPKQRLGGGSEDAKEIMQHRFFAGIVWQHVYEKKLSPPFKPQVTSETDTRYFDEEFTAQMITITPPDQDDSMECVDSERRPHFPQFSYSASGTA

Columns and labels:
Details in all cases: K562; 2-18 h
STK38 = STK38 (UniProt Q15208); experiment: kinase-Nluc reporter destabilization hit call (1 = scored as downregulated) (binary); higher = compound decreases kinase abundance
SYK = SYK (UniProt P43405); experiment: as above
TEC = TEC (UniProt P42680); experiment: as above
TYK2 = TYK2 (UniProt P29597); experiment: as above
ULK3 = ULK3 (UniProt Q6PHR2); experiment: as above
YES1 = YES1 (UniProt P07947); experiment: as above
ZAK = ZAK (UniProt Q9NYL2); experiment: as above
ZAP70 = ZAP70 (UniProt P43403); experiment: as above
ABL1 = ABL1 (UniProt P00519); experiment: number of time points (of 5) at which kinase-Nluc abundance scored as decreased, DMSO-normalised (count); higher = more persistent destabilization
AKT1 = AKT1 (UniProt P31749); experiment: as above

Cn1cc(C2=C(c3cccc(N)c3)C(=O)NC2=O)c2ccccc21 (10 µM)
inactive: kinase-Nluc reporter destabilization hit call (STK38) 0 | kinase-Nluc reporter destabilization hit call (SYK) 0 | kinase-Nluc reporter destabilization hit call (TEC) 0 | kinase-Nluc reporter destabilization hit call (TYK2) 0 | kinase-Nluc reporter destabilization hit call (ULK3) 0 | kinase-Nluc reporter destabilization hit call (YES1) 0 | kinase-Nluc reporter destabilization hit call (ZAK) 0 | kinase-Nluc reporter destabilization hit call (ZAP70) 0
0: number of time points (ABL1) | number of time points (AKT1)

CC(=O)c1c(C)c2cnc(Nc3ccc(N4CCN(C(=O)CNc5cccc6c5C(=O)N(C5CCC(=O)NC5=O)C6=O)CC4)cn3)nc2n(C2CCCC2)c1=O (stereo not given) (10 µM)
inactive: kinase-Nluc reporter destabilization hit call (STK38) 0 | kinase-Nluc reporter destabilization hit call (SYK) 0 | kinase-Nluc reporter destabilization hit call (TEC) 0 | kinase-Nluc reporter destabilization hit call (TYK2) 0 | kinase-Nluc reporter destabilization hit call (ULK3) 0 | kinase-Nluc reporter destabilization hit call (YES1) 0 | kinase-Nluc reporter destabilization hit call (ZAK) 0 | kinase-Nluc reporter destabilization hit call (ZAP70) 0
0: number of time points (ABL1) | number of time points (AKT1)

C[C@H](NC(=O)[C@H]1NCC[C@@H]1O)c1ccc(-c2noc(CCC3CCCC3)n2)cc1 (10 µM)
0: number of time points (ABL1) | number of time points (AKT1)
inactive: kinase-Nluc reporter destabilization hit call (STK38) 0 | kinase-Nluc reporter destabilization hit call (SYK) 0 | kinase-Nluc reporter destabilization hit call (TEC) 0 | kinase-Nluc reporter destabilization hit call (TYK2) 0 | kinase-Nluc reporter destabilization hit call (ULK3) 0 | kinase-Nluc reporter destabilization hit call (YES1) 0 | kinase-Nluc reporter destabilization hit call (ZAK) 0 | kinase-Nluc reporter destabilization hit call (ZAP70) 0

CC(C)(C[C@H](N)C(=O)O)C(F)F [NV-5138 (hydrochloride)] (10 µM)
inactive: kinase-Nluc reporter destabilization hit call (STK38) 0 | kinase-Nluc reporter destabilization hit call (SYK) 0 | kinase-Nluc reporter destabilization hit call (TEC) 0 | kinase-Nluc reporter destabilization hit call (TYK2) 0 | kinase-Nluc reporter destabilization hit call (ULK3) 0 | kinase-Nluc reporter destabilization hit call (YES1) 0 | kinase-Nluc reporter destabilization hit call (ZAK) 0 | kinase-Nluc reporter destabilization hit call (ZAP70) 0
0: number of time points (ABL1) | number of time points (AKT1)

CCc1cncnc1N1CCN(Cc2nc3ccc(C(F)(F)F)cc3[nH]2)CC1 (10 µM)
0: number of time points (ABL1) | number of time points (AKT1)
inactive: kinase-Nluc reporter destabilization hit call (STK38) 0 | kinase-Nluc reporter destabilization hit call (SYK) 0 | kinase-Nluc reporter destabilization hit call (TEC) 0 | kinase-Nluc reporter destabilization hit call (TYK2) 0 | kinase-Nluc reporter destabilization hit call (ULK3) 0 | kinase-Nluc reporter destabilization hit call (YES1) 0 | kinase-Nluc reporter destabilization hit call (ZAK) 0 | kinase-Nluc reporter destabilization hit call (ZAP70) 0

COc1ccc(S(=O)(=O)NCc2ccc(C(=O)NCCc3ccc(Cl)cn3)cc2)cc1 (10 µM)
0: number of time points (ABL1) | number of time points (AKT1)
inactive: kinase-Nluc reporter destabilization hit call (STK38) 0 | kinase-Nluc reporter destabilization hit call (SYK) 0 | kinase-Nluc reporter destabilization hit call (TEC) 0 | kinase-Nluc reporter destabilization hit call (TYK2) 0 | kinase-Nluc reporter destabilization hit call (ULK3) 0 | kinase-Nluc reporter destabilization hit call (YES1) 0 | kinase-Nluc reporter destabilization hit call (ZAK) 0 | kinase-Nluc reporter destabilization hit call (ZAP70) 0

O=C1NC(=O)C(c2cnc3ccccn23)=C1c1cn2c3c(cc(F)cc13)CNCC2 [GSK-3 inhibitor 1] (2.5 µM)
inactive: kinase-Nluc reporter destabilization hit call (STK38) 0 | kinase-Nluc reporter destabilization hit call (SYK) 0 | kinase-Nluc reporter destabilization hit call (TEC) 0 | kinase-Nluc reporter destabilization hit call (TYK2) 0 | kinase-Nluc reporter destabilization hit call (ULK3) 0 | kinase-Nluc reporter destabilization hit call (YES1) 0 | kinase-Nluc reporter destabilization hit call (ZAK) 0 | kinase-Nluc reporter destabilization hit call (ZAP70) 0
0: number of time points (ABL1) | number of time points (AKT1)

C=CC(=O)N1CCC[C@H](n2c(=O)n(-c3ccc(Oc4ccccc4)cc3)c3c(N)ncnc32)C1 [ONO-4059 (analog)] (10 µM)
inactive: kinase-Nluc reporter destabilization hit call (STK38) 0 | kinase-Nluc reporter destabilization hit call (SYK) 0 | kinase-Nluc reporter destabilization hit call (TEC) 0 | kinase-Nluc reporter destabilization hit call (TYK2) 0 | kinase-Nluc reporter destabilization hit call (ULK3) 0 | kinase-Nluc reporter destabilization hit call (YES1) 0 | kinase-Nluc reporter destabilization hit call (ZAK) 0 | kinase-Nluc reporter destabilization hit call (ZAP70) 0
0: number of time points (ABL1) | number of time points (AKT1)

O=C(NC1CCOCC1)c1ccc(-c2cc(-c3c[nH]nc3-c3ccccn3)ccn2)cc1 (10 µM)
0: number of time points (ABL1) | number of time points (AKT1)
inactive: kinase-Nluc reporter destabilization hit call (STK38) 0 | kinase-Nluc reporter destabilization hit call (SYK) 0 | kinase-Nluc reporter destabilization hit call (TEC) 0 | kinase-Nluc reporter destabilization hit call (TYK2) 0 | kinase-Nluc reporter destabilization hit call (ULK3) 0 | kinase-Nluc reporter destabilization hit call (YES1) 0 | kinase-Nluc reporter destabilization hit call (ZAK) 0 | kinase-Nluc reporter destabilization hit call (ZAP70) 0

CC(C)c1cccc(C(C)C)c1N1C(=O)c2ccc(N)cc2C1=O (2.5 µM)
inactive: kinase-Nluc reporter destabilization hit call (STK38) 0 | kinase-Nluc reporter destabilization hit call (SYK) 0 | kinase-Nluc reporter destabilization hit call (TEC) 0 | kinase-Nluc reporter destabilization hit call (TYK2) 0 | kinase-Nluc reporter destabilization hit call (ULK3) 0 | kinase-Nluc reporter destabilization hit call (YES1) 0 | kinase-Nluc reporter destabilization hit call (ZAK) 0 | kinase-Nluc reporter destabilization hit call (ZAP70) 0
0: number of time points (ABL1) | number of time points (AKT1)

Cc1cc2sc(NC(=O)Cc3ccccc3)nc2cc1Cl (10 µM)
0: number of time points (ABL1) | number of time points (AKT1)
inactive: kinase-Nluc reporter destabilization hit call (STK38) 0 | kinase-Nluc reporter destabilization hit call (SYK) 0 | kinase-Nluc reporter destabilization hit call (TEC) 0 | kinase-Nluc reporter destabilization hit call (TYK2) 0 | kinase-Nluc reporter destabilization hit call (ULK3) 0 | kinase-Nluc reporter destabilization hit call (YES1) 0 | kinase-Nluc reporter destabilization hit call (ZAK) 0 | kinase-Nluc reporter destabilization hit call (ZAP70) 0

COc1c(Nc2cc(C)[nH]n2)nc(Sc2ccc(S(=O)(=O)Cc3cccc([N+](=O)[O-])c3F)cc2F)nc1N1CCCCC1 [Centrinone-B] (2.5 µM)
inactive: kinase-Nluc reporter destabilization hit call (STK38) 0 | kinase-Nluc reporter destabilization hit call (SYK) 0 | kinase-Nluc reporter destabilization hit call (TEC) 0 | kinase-Nluc reporter destabilization hit call (TYK2) 0 | kinase-Nluc reporter destabilization hit call (ULK3) 0 | kinase-Nluc reporter destabilization hit call (YES1) 0 | kinase-Nluc reporter destabilization hit call (ZAK) 0 | kinase-Nluc reporter destabilization hit call (ZAP70) 0
0: number of time points (ABL1) | number of time points (AKT1)

As a working copy, two of the compounds above.
CC(C)c1cccc(C(C)C)c1N1C(=O)c2ccc(N)cc2C1=O (2.5 µM)
inactive: kinase-Nluc reporter destabilization hit call (STK38) 0 | kinase-Nluc reporter destabilization hit call (SYK) 0 | kinase-Nluc reporter destabilization hit call (TEC) 0 | kinase-Nluc reporter destabilization hit call (TYK2) 0 | kinase-Nluc reporter destabilization hit call (ULK3) 0 | kinase-Nluc reporter destabilization hit call (YES1) 0 | kinase-Nluc reporter destabilization hit call (ZAK) 0 | kinase-Nluc reporter destabilization hit call (ZAP70) 0
0: number of time points (ABL1) | number of time points (AKT1)

Cc1cc2sc(NC(=O)Cc3ccccc3)nc2cc1Cl (10 µM)
0: number of time points (ABL1) | number of time points (AKT1)
inactive: kinase-Nluc reporter destabilization hit call (STK38) 0 | kinase-Nluc reporter destabilization hit call (SYK) 0 | kinase-Nluc reporter destabilization hit call (TEC) 0 | kinase-Nluc reporter destabilization hit call (TYK2) 0 | kinase-Nluc reporter destabilization hit call (ULK3) 0 | kinase-Nluc reporter destabilization hit call (YES1) 0 | kinase-Nluc reporter destabilization hit call (ZAK) 0 | kinase-Nluc reporter destabilization hit call (ZAP70) 0

Next entries.

c1cc(NC2CCNCC2)nc(-c2cnc3ccccn23)c1 [IRAK inhibitor 1] (10 µM)
inactive: kinase-Nluc reporter destabilization hit call (STK38) 0 | kinase-Nluc reporter destabilization hit call (SYK) 0 | kinase-Nluc reporter destabilization hit call (TEC) 0 | kinase-Nluc reporter destabilization hit call (TYK2) 0 | kinase-Nluc reporter destabilization hit call (ULK3) 0 | kinase-Nluc reporter destabilization hit call (YES1) 0 | kinase-Nluc reporter destabilization hit call (ZAK) 0 | kinase-Nluc reporter destabilization hit call (ZAP70) 0
0: number of time points (ABL1) | number of time points (AKT1)

CNc1nc(Nc2ccc(C(=O)N3CCOCC3)cc2OC)ncc1Cl (2.5 µM)
inactive: kinase-Nluc reporter destabilization hit call (STK38) 0 | kinase-Nluc reporter destabilization hit call (SYK) 0 | kinase-Nluc reporter destabilization hit call (TEC) 0 | kinase-Nluc reporter destabilization hit call (TYK2) 0 | kinase-Nluc reporter destabilization hit call (ULK3) 0 | kinase-Nluc reporter destabilization hit call (YES1) 0 | kinase-Nluc reporter destabilization hit call (ZAK) 0 | kinase-Nluc reporter destabilization hit call (ZAP70) 0
0: number of time points (ABL1) | number of time points (AKT1)

C=CCc1ccc(O)c(-c2ccc(O)c(CC=C)c2)c1 [Honokiol] (10 µM)
0: number of time points (ABL1) | number of time points (AKT1)
inactive: kinase-Nluc reporter destabilization hit call (STK38) 0 | kinase-Nluc reporter destabilization hit call (SYK) 0 | kinase-Nluc reporter destabilization hit call (TEC) 0 | kinase-Nluc reporter destabilization hit call (TYK2) 0 | kinase-Nluc reporter destabilization hit call (ULK3) 0 | kinase-Nluc reporter destabilization hit call (YES1) 0 | kinase-Nluc reporter destabilization hit call (ZAK) 0 | kinase-Nluc reporter destabilization hit call (ZAP70) 0
